Results from PubChem BioAssay AID256 (DTP/NCI, 2004).
The list shows only some results of the screen, not a fair sample: it is rich in T/C values a quarter to a half above the control, in often repeated tests (any T/C) and in doses without a T/C. Other doses and runs of a compound stand elsewhere. T/C: endpoint of the treated group in % of that of the vehicle group. Some entries give survivors of the animals treated and no T/C: the source holds a T/C of zero for them, seemingly a mark for toxic or unscored doses. Some doses without a T/C left all or most animals alive at the check, yet need not have been tolerated: the source hardly ever lists a survival T/C far under the control, and the zero likely stands for such cases as well. Survivors were counted at the toxicity check, usually on the fifth day, unless a day is given; later deaths do not show. Schedules are NCI's codes, taken here to give the interval after Q, in days (D) or hours (H), and the number of doses after X. Some doses were run more than once; the values are given in rising order. Where survival is the endpoint, this PubChem deposit counts one and a half times the control or more as active, and values a quarter to a half above the control carry no call in these data; other NCI protocols may use other cut-offs. Some T/C values carry the count of animals alive at the toxicity check (mostly the fifth day); without a count, all were alive then.

Tested on: CD2F1 mice, L1210 leukemia ip, survival T/C
Experiment: NCI In Vivo Anticancer Drug Screen. Data for tumor model L1210 Leukemia (intraperitoneal) in CD2F1 (CDF1) mice
Details: T/C endpoint: mean survival time, higher T/C = longer survival
Method in brief: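 Ratio T/C, where T is the treated-group value and C the vehicle-dosed control value, from mice implanted with a transplantable tumor.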

[1] = dose: 100.0 mg/kg/injection, schedule: Q01DX009 (ip), vehicle: saline with Tween-80
[2] = dose: 200.0 mg/kg/injection, schedule: Q04DX003 (ip), vehicle: saline with Tween-80
[3] = dose: 400.0 mg/kg/injection, schedule: Q04DX003 (ip), vehicle: saline with Tween-80

CS(=O)(=O)OCCN(CCOS(C)(=O)=O)c1ccc(C=O)cc1
T/C (dose: 3.12 mg/kg/injection, schedule: Q01DX009 (ip), vehicle: saline): 139 % of control | T/C (dose: 6.25 mg/kg/injection, schedule: Q01DX009 (ip), vehicle: saline): 135 % of control | T/C (dose: 12.5 mg/kg/injection, schedule: Q01DX009 (ip), vehicle: saline with Tween-80): 125 % of control | T/C (dose: 25.0 mg/kg/injection, schedule: Q01DX009 (ip), vehicle: saline with Tween-80): 130 % of control | survivor count (dose: 50.0 mg/kg/injection, schedule: Q01DX009 (ip), vehicle: saline): 5 of 6 | survivor count [1]: 3 of 6 and 5 of 6 | survivor count (dose: 100.0 mg/kg/injection, schedule: Q01DX009 (ip), vehicle: saline): 4 of 6

COc1cc(/C=C/c2nc3ccccc3nc2/C=C/c2cc(OC)c(OC)c(OC)c2)cc(OC)c1OC
survivor count [1]: 6 of 6 | survivor count (dose: 100.0 mg/kg/injection, schedule: Q04DX003 (ip), vehicle: saline with Tween-80): 6 of 6 | survivor count [2]: 6 of 6

[Br][Pt+2][Br].[NH-]c1cccc(F)c1.[NH-]c1cccc(F)c1
survivor count (dose: 200.0 mg/kg/injection, schedule: Q04DX003 (ip), vehicle: distilled water + Tween-80): 1 of 6

COC(=O)Nc1ccc(NC(=O)c2cscn2)c(NC(=O)OC)n1
survivor count [3]: 5 of 6

NC1=C(Cl)C(=O)c2ccccc2C1=O
survivor count [2]: 0 of 6 | survivor count [3]: 0 of 6

Nc1cc(Cl)c(Cl)cc1S(=O)(=O)NO
survivor count [2]: 6 of 6

CC(=O)OCCN(CCOC(C)=O)CCOC(C)=O
survivor count (dose: 200.0 mg/kg/injection, schedule: Q04DX003 (ip), vehicle: Klucel (hydroxypropylcellulose) (HPC)): 4 of 6 | survivor count (dose: 400.0 mg/kg/injection, schedule: Q04DX003 (ip), vehicle: Klucel (hydroxypropylcellulose) (HPC)): 2 of 6

NNC(=O)C1CCN1C(c1ccccc1)c1ccccc1 (configuration not stated)
survivor count (dose: 200.0 mg/kg/injection, schedule: Q01DX001 (ip), vehicle: saline with Tween-80): 0 of 3 | survivor count (dose: 400.0 mg/kg/injection, schedule: Q01DX001 (ip), vehicle: saline with Tween-80): 0 of 3

Cc1noc2nccnc12
survivor count (dose: 200.0 mg/kg/injection, schedule: Q01DX009 (ip), vehicle: saline with Tween-80): 3 of 6 | survivor count [2]: 5 of 6 | survivor count [3]: 0 of 6

O=C(Cc1ccccc1)C(Br)C(Br)c1ccccc1 (configuration not stated)
survivor count (dose: 50.0 mg/kg/injection, schedule: Q01DX009 (ip), vehicle: saline with Tween-80): 2 of 6 | survivor count [1]: 3 of 6 | survivor count [2]: 4 of 6 | survivor count [3]: 0 of 6

[Cl][Pt+2][Cl].[NH-]Cc1ccccc1C[NH-]
survivor count (dose: 100.0 mg/kg/injection, schedule: Q04DX003 (ip), vehicle: dextrose): 6 of 6

C=C(C)C(=O)OCCN(C)C (tested in a mixture with another compound)
survivor count (dose: 400.0 mg/kg/injection, schedule: Q01DX009 (ip), vehicle: saline with Tween-80): 3 of 6

Cc1cn(C2CC3[O][Sn]([CH3])([CH3])[O]CC3O2)c(=O)[nH]c1=O (configuration not stated)
survivor count (dose: 100.0 mg/kg/injection, schedule: Q01DX005 (ip), vehicle: other): 0 of 6 | survivor count (dose: 200.0 mg/kg/injection, schedule: Q01DX005 (ip), vehicle: other): 0 of 6

CCCCOCCSc1ccccc1
survivor count (dose: 400.0 mg/kg/injection, schedule: Q01DX001 (ip), vehicle: saline): 0 of 6

O=NN(CCCCl)C(=O)Nc1ccccc1
survivor count (dose: 300.0 mg/kg/injection, schedule: Q01DX001 (ip), vehicle: carboxymethylcellulose (CMC)): 5 of 6 | survivor count (dose: 400.0 mg/kg/injection, schedule: Q01DX001 (ip), vehicle: carboxymethylcellulose (CMC)): 4 of 6 | survivor count (dose: 500.0 mg/kg/injection, schedule: Q01DX001 (ip), vehicle: carboxymethylcellulose (CMC)): 0 of 6 | T/C (dose: 600.0 mg/kg/injection, schedule: Q01DX001 (ip), vehicle: carboxymethylcellulose (CMC)): 127 % of control [5 of 6 alive] | survivor count (dose: 800.0 mg/kg/injection, schedule: Q01DX001 (ip), vehicle: carboxymethylcellulose (CMC)): 0 of 6 | survivor count (dose: 1000.0 mg/kg/injection, schedule: Q01DX001 (ip), vehicle: carboxymethylcellulose (CMC)): 0 of 6
